Measurements reported in PubChem BioAssay AID686938 (Drosophila RNAi Screening Center, 2013).

Test: 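Fly genes required for calcium entry once internal stores are emptied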 (primary screen)
System: Drosophila S2R+ cells
Knock-down reagent: long dsRNA against Drosophila genes, about 0.25 µg dsRNA per well, roughly 10,000 cells
Duration: 5 days of knock-down before the calcium assay
Conditions: thapsigargin (SERCA pump blocker) to empty calcium stores; entry signal taken 4 min after adding it
Measured: 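Per-well fluo-4 fluorescence in two replicates, unnormalised, measured in resting cells and 4 min after store depletion by the SERCA blocker thapsigargin; ratio of the two present in few wells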
Direction: calcium entry signal: higher = stronger calcium signal after store depletion; entry to resting ratio: higher = more calcium entry relative to resting level; resting calcium signal: higher = higher resting calcium signal
Units: calcium entry signal in fluorescence units; resting calcium signal in fluorescence units
Active means: 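Called when the plate z-score of the entry-to-rest ratio, mean of duplicates, falls below −3; wells with low overall dye signal (Fmax z below −2) or more than five off-targets excluded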
Meaning of the calls: active = strongly reduced calcium entry; inactive = no strong reduction
In all, the deposit lists about 23,000 reagents; below is a random part of those that have a named target and a result. Of all reagents, 75 (0.33%) got an active call. 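Raw plate signals without normalisation; calls rest on plate z-scores that were not deposited; ratio present for only 364 wells.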 Entries without a mark were called inactive. Reagents against one gene are numbered here. Names joined by + are all predicted targets of the reagent. Not given: the dose of the treatment.

gene knocked down | dsRNA no. | calcium entry signal, replicate 1 | calcium entry signal, replicate 2 | entry to resting ratio | resting calcium signal, replicate 1 | resting calcium signal, replicate 2
CG15423 | 1 | 3.50e7 | 4.28e7 | – | 1.78e7 | 2.00e7
Dlip3 | 1 | 5.41e7 | 6.15e7 | – | 2.10e7 | 2.77e7
hpRNA:CR18854 + IP3K1 | 1 | 5.90e7 | – | – | 2.55e7 | –
Tfb1 | 1 | 2.59e7 | 4.34e7 | – | 1.26e7 | 1.93e7
CG4830 | 1 | 2.05e7 | 2.37e7 | – | 1.22e7 | 1.34e7
Trp1 | 1 | 2.79e7 | 4.33e7 | – | 1.29e7 | 1.93e7
ng4 | 1 | 5.24e7 | 6.05e7 | 2.1 | 2.47e7 | 2.49e7
CG17977 | 1 | 3.68e7 | 4.25e7 | – | 1.73e7 | 1.85e7
CG42540 | 1 | 6.59e7 | 5.37e7 | – | 4.28e7 | 2.39e7
CG42540 | 2 | 2.30e7 | 4.16e7 | – | 1.19e7 | 1.82e7
CG42540 | 3 | 1.75e7 | 3.38e7 | – | 1.16e7 | 1.82e7
CG42540 | 4 | 3.80e7 | 3.41e7 | – | 1.80e7 | 1.65e7
NSD | 1 | 2.89e7 | 4.16e7 | – | 1.57e7 | 1.89e7
ECSIT | 1 | 4.09e7 | 3.06e7 | – | 2.08e7 | 1.58e7
p | 1 | 4.49e7 | 2.61e7 | – | 2.36e7 | 1.34e7
CG7065 | 1 | 4.38e7 | 4.30e7 | – | 2.08e7 | 1.99e7
EMC8-9 | 1 | 3.94e7 | – | – | 1.94e7 | –
BBS5 | 1 | 2.77e7 | 4.95e7 | – | 1.36e7 | 2.05e7
Gr22f | 1 | 4.18e7 | 4.07e7 | – | 2.27e7 | 1.76e7
JYalpha | 1 | 4.73e7 | 5.68e7 | 2 | 2.38e7 | 2.65e7
CngB | 1 | 2.44e7 | – | – | 1.33e7 | –
CG7886 | 1 | 2.70e7 | 3.94e7 | – | 1.37e7 | 6.30e7
dati | 1 | 2.80e7 | 3.46e7 | – | 1.31e7 | 1.68e7
dati | 2 | 4.15e7 | 6.03e7 | 1.9 | 2.18e7 | 2.32e7
dati | 3 | 4.40e7 | 5.78e7 | 1.9 | 2.26e7 | 2.10e7
bab2 | 1 | 2.89e7 | 3.34e7 | – | 1.49e7 | 1.62e7
bab2 | 2 | 2.54e7 | 2.96e7 | – | 1.42e7 | 1.35e7
shd | 1 | 3.37e7 | 5.35e7 | – | 1.61e7 | 2.31e7
Cpr65Au | 1 | 4.28e7 | 3.83e7 | – | 2.44e7 | 1.77e7
CG13227 | 1 | 1.82e7 | 2.02e7 | – | 9.46e6 | 1.00e7
whe | 1 | 4.29e7 | 3.95e7 | – | 2.08e7 | 1.73e7
Lcp65Af | 1 | 2.62e7 | 3.09e7 | – | 1.22e7 | 1.31e7
alpha-Man-IIb | 1 | 2.61e7 | 2.63e7 | – | 1.28e7 | 1.14e7
CG6429 | 1 | 2.03e7 | 3.46e7 | – | 1.20e7 | 1.68e7
Usp12-46 | 1 | 5.11e7 | 4.63e7 | – | 2.16e7 | 1.84e7
RhoGAP15B | 1 | 2.67e7 | 2.40e7 | – | 1.30e7 | 1.14e7
RhoGAP15B | 2 | 4.26e7 | 3.06e7 | – | 2.13e7 | 1.44e7
RIOK2 | 1 | 2.94e7 | 3.35e7 | – | 1.64e7 | 1.60e7
Rap1 | 1 | 4.02e7 | 3.48e7 | – | 2.05e7 | 1.74e7
Scm | 1 | 3.89e7 | 3.94e7 | – | 1.90e7 | 1.97e7
Smyd4-2 | 1 | 3.03e7 | 3.33e7 | – | 1.65e7 | 1.49e7
CG10283 | 1 | 3.76e7 | – | – | 1.76e7 | –
ppk | 1 | 5.73e7 | 3.39e7 | – | 2.31e7 | 1.64e7
CG2812 | 1 | 3.91e7 | 4.15e7 | – | 2.00e7 | 2.11e7
CG3168 | 1 | 3.44e7 | 3.67e7 | – | 1.52e7 | 1.60e7
CG9631 | 1 | 3.52e7 | 3.68e7 | – | 1.59e7 | 1.77e7
Hakai | 1 | 5.29e7 | – | – | 2.53e7 | –
CG15543 | 1 | 4.37e7 | 5.33e7 | – | 2.15e7 | 2.06e7
MICAL-like | 1 | 5.47e7 | 3.84e7 | – | 3.23e7 | 1.60e7
CG13160 | 1 | 2.92e7 | 3.77e7 | – | 1.48e7 | 1.53e7
sktl | 1 | 4.30e7 | – | – | 1.90e7 | –
Magi | 1 | 4.76e7 | – | – | 2.37e7 | –
Magi | 2 | 4.55e7 | 4.82e7 | – | 2.12e7 | 2.19e7
dar1 | 1 | 5.31e7 | 4.01e7 | – | 2.61e7 | 1.93e7
dar1 | 2 | 2.96e7 | 4.80e7 | – | 1.57e7 | 2.24e7
Eaf | 1 | 2.55e7 | 3.38e7 | – | 1.23e7 | 1.55e7
Eaf | 2 | 4.35e7 | – | – | 2.08e7 | –
Eaf | 3 | 2.62e7 | 4.10e7 | – | 1.30e7 | 2.15e7

Part of the list above in another layout:
gene knocked down	dsRNA no.	calcium entry signal, replicate 1	calcium entry signal, replicate 2	entry to resting ratio	resting calcium signal, replicate 1	resting calcium signal, replicate 2
NSD	1	2.89e7	4.16e7		1.57e7	1.89e7
ECSIT	1	4.09e7	3.06e7		2.08e7	1.58e7
p	1	4.49e7	2.61e7		2.36e7	1.34e7
CG7065	1	4.38e7	4.30e7		2.08e7	1.99e7
EMC8-9	1	3.94e7			1.94e7	
BBS5	1	2.77e7	4.95e7		1.36e7	2.05e7
Gr22f	1	4.18e7	4.07e7		2.27e7	1.76e7
